The target in the assay is Flag-FTO (UniProt Q9C0B1). The experiment in a line: co-IP; HeLa cells transfected with Flag-EV, Flag-FTO, HA-p62 WT or HA-p62 ΔUBA; immunoprecipitation and blot for Flag-FTO and HA-p62; cells fixed with 0.4% formaldehyde, harvested in lysis buffer with 1% SDS and boiled, diluted, IP at 4 °C for 1.5 h; which tag was precipitated is not said.

Results are given in words; binding and its absence hold for the method and conditions named. Binding seen in cells or lysates may run through a third protein. Some entries that bind do so weakly or less than the wild type.

In the case of HA-p62 WT (from UniProt Q13501 1-440), the binding entry was “binds”.
